Data taken from publication PMC11310286.
No constants are given. Whether binding was seen depends on the method and setting. In cells and extracts the contact can be indirect. Some results given as binding are weak or reduced against the parent protein; the word gives no strength. For some assays here: Sequences can lack the tags named with a protein.

B1: BCL10 (endogenous, mouse) (protein, UniProt Q9Z0H7 1-233)
chain: MEAPAPSLTEEDLTEVKKDALENLRVYLCEKIIAERHFDHLRAKKILSREDTEEISCRTSSRKRAGKLLDYLQENPRGLDTLVESIRREKTQSFLIQKITDEVLKLRNIKLEHLKGLKCSSCEPFAAGATNNLSRCNSDESNLSEKQRASTVMYHPEGESSTAPFFSMASSLNLPVLEVGRTENSSFSSATLPRPGDPGAPPLPPDLRLEEGGSCGNSSEMFLPLRSRALSRQ
B2: OTUD1 (endogenous, mouse) (enzyme, UniProt Q9CUB6 1-454)
chain: MQLYSSVCTHYPAGTPGPTAAAPPATAAAAFKVSLQSASPAAAAPEPDTGERPPAAATEPREAAAAAAMPAFSACFERSGSAAAPPGACSKPPLPPHFTSTAHIAVRALGAERLLLPPPSAPSPPRRGSSAWLLEELLRPDEPAAPNAVRDAPDRNFRLSEHRQALAASQHRAPAPAPVGPEPGAGPGSGPWGEERRAERSSRGWDRASGRSDASGSDALRRQDPEAEAHPVPAPARSSGEPAQNGEGEAVGTSRADPRDEKLALYLAEVERQDKYLRQRNKYRFHIIPDGNCLYRAVSKTVYGDQSLHRELREQTVHYIADHLDHFSPLIEGDVGEFIIAAAQDGAWAGYPELLAMGQMLNVNIHLTTGGRLESPTVSTMIHYLGPEDSLRPSIWLSWLSNGHYDAVFDHSYPNPEYDNWCKQTQIQKKRDEELAKSMAISLSKMYIEQNACS
B3: GFP-BCL10, O95999 1-233 (protein)
chain: MEPTAPSLTEEDLTEVKKDALENLRVYLCEKIIAERHFDHLRAKKILSREDTEEISCRTSSRKRAGKLLDYLQENPKGLDTLVESIRREKTQNFLIQKITDEVLKLRNIKLEHLKGLKCSSCEPFPDGATNNLSRSNSDESNFSEKLRASTVMYHPEGESSTTPFFSTNSSLNLPVLEVGRTENTIFSSTTLPRPGDPGAPPLPPDLQLEEEGTCANSSEMFLPLRSRTVSRQ

Columns and labels:
[1] = molecular target: T1, CARD9 (endogenous, mouse) (mouse (endogenous in heart tissue and MPMs)) (UniProt A2AIV8); test: co-IP; lysates of primary mouse peritoneal macrophages; endogenous CARD9 precipitated with anti-CARD9 antibody, IgG as IP control; immunoblot; cells with or without ISO (20 uM, 1 h), from WT or Otud1-/- mice
T1 sequence: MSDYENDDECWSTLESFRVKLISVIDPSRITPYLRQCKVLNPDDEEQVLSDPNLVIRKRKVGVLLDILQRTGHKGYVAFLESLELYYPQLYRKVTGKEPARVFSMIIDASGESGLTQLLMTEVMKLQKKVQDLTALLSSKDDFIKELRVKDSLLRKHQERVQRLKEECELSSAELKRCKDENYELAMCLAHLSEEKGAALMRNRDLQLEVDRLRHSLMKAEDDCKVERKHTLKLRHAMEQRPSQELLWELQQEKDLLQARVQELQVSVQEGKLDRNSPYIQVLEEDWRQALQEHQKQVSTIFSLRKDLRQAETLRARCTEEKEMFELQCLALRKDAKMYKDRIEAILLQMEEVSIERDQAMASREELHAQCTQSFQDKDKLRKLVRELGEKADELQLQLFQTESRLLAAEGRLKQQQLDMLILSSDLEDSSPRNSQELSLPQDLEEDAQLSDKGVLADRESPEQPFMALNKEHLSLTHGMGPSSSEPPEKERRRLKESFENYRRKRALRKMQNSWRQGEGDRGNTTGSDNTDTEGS

[2] = molecular target: T1, CARD9 (endogenous, mouse) (mouse (endogenous in heart tissue and MPMs)); test: co-IP; mouse heart tissue lysates (RIPA buffer); endogenous CARD9 precipitated with anti-CARD9 antibody and protein A+G-sepharose beads, IgG as IP control; immunoblot; mice sham or infused with ISO 30 mg/kg/day for 2 weeks, also chimeric mice with WT or Otud1-/- bone marrow
Myc-CARD9, Q9H257 = molecular target: T2, Myc-CARD9, Q9H257; test: co-IP; lysates of transfected HEK-293T cells; Myc-CARD9 precipitated with anti-Myc, immunoblot of Flag or GFP and Myc; for the BCL10 pair also co-transfected HA-Ub, HA-K33, Flag-OTUD1 or Flag-OTUD1-C320S and MG132 (10 uM) for 6 h; settings: remark: other sources report otherwise
T2 chain: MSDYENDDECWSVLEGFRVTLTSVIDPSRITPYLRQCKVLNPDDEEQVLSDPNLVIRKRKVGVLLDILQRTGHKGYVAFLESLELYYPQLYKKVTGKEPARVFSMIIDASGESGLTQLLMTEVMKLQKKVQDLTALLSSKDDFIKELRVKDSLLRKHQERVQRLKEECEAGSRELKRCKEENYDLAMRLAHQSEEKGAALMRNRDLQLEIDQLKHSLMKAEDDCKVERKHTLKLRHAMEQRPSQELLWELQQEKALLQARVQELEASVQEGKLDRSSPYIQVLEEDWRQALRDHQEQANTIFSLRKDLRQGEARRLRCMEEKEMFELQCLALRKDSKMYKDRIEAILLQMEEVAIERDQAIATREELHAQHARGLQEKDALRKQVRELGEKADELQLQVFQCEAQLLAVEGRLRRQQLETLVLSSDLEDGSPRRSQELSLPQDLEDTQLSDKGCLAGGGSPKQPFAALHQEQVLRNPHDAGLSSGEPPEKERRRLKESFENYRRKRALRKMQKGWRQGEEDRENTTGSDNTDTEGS

binding [1] | binding [2] | binding (Myc-CARD9, Q9H257) | Binder
binds | binds | – | B1
binds | binds | – | B2
– | – | binds | B3
